Data published in the supplement of paper PMC10849652.
Some of the results follow.

Amino acid sequences for entries named in this document (tags omitted). A change or cut given only in a name is not applied to a line headed by its entry.
UniProt O95714: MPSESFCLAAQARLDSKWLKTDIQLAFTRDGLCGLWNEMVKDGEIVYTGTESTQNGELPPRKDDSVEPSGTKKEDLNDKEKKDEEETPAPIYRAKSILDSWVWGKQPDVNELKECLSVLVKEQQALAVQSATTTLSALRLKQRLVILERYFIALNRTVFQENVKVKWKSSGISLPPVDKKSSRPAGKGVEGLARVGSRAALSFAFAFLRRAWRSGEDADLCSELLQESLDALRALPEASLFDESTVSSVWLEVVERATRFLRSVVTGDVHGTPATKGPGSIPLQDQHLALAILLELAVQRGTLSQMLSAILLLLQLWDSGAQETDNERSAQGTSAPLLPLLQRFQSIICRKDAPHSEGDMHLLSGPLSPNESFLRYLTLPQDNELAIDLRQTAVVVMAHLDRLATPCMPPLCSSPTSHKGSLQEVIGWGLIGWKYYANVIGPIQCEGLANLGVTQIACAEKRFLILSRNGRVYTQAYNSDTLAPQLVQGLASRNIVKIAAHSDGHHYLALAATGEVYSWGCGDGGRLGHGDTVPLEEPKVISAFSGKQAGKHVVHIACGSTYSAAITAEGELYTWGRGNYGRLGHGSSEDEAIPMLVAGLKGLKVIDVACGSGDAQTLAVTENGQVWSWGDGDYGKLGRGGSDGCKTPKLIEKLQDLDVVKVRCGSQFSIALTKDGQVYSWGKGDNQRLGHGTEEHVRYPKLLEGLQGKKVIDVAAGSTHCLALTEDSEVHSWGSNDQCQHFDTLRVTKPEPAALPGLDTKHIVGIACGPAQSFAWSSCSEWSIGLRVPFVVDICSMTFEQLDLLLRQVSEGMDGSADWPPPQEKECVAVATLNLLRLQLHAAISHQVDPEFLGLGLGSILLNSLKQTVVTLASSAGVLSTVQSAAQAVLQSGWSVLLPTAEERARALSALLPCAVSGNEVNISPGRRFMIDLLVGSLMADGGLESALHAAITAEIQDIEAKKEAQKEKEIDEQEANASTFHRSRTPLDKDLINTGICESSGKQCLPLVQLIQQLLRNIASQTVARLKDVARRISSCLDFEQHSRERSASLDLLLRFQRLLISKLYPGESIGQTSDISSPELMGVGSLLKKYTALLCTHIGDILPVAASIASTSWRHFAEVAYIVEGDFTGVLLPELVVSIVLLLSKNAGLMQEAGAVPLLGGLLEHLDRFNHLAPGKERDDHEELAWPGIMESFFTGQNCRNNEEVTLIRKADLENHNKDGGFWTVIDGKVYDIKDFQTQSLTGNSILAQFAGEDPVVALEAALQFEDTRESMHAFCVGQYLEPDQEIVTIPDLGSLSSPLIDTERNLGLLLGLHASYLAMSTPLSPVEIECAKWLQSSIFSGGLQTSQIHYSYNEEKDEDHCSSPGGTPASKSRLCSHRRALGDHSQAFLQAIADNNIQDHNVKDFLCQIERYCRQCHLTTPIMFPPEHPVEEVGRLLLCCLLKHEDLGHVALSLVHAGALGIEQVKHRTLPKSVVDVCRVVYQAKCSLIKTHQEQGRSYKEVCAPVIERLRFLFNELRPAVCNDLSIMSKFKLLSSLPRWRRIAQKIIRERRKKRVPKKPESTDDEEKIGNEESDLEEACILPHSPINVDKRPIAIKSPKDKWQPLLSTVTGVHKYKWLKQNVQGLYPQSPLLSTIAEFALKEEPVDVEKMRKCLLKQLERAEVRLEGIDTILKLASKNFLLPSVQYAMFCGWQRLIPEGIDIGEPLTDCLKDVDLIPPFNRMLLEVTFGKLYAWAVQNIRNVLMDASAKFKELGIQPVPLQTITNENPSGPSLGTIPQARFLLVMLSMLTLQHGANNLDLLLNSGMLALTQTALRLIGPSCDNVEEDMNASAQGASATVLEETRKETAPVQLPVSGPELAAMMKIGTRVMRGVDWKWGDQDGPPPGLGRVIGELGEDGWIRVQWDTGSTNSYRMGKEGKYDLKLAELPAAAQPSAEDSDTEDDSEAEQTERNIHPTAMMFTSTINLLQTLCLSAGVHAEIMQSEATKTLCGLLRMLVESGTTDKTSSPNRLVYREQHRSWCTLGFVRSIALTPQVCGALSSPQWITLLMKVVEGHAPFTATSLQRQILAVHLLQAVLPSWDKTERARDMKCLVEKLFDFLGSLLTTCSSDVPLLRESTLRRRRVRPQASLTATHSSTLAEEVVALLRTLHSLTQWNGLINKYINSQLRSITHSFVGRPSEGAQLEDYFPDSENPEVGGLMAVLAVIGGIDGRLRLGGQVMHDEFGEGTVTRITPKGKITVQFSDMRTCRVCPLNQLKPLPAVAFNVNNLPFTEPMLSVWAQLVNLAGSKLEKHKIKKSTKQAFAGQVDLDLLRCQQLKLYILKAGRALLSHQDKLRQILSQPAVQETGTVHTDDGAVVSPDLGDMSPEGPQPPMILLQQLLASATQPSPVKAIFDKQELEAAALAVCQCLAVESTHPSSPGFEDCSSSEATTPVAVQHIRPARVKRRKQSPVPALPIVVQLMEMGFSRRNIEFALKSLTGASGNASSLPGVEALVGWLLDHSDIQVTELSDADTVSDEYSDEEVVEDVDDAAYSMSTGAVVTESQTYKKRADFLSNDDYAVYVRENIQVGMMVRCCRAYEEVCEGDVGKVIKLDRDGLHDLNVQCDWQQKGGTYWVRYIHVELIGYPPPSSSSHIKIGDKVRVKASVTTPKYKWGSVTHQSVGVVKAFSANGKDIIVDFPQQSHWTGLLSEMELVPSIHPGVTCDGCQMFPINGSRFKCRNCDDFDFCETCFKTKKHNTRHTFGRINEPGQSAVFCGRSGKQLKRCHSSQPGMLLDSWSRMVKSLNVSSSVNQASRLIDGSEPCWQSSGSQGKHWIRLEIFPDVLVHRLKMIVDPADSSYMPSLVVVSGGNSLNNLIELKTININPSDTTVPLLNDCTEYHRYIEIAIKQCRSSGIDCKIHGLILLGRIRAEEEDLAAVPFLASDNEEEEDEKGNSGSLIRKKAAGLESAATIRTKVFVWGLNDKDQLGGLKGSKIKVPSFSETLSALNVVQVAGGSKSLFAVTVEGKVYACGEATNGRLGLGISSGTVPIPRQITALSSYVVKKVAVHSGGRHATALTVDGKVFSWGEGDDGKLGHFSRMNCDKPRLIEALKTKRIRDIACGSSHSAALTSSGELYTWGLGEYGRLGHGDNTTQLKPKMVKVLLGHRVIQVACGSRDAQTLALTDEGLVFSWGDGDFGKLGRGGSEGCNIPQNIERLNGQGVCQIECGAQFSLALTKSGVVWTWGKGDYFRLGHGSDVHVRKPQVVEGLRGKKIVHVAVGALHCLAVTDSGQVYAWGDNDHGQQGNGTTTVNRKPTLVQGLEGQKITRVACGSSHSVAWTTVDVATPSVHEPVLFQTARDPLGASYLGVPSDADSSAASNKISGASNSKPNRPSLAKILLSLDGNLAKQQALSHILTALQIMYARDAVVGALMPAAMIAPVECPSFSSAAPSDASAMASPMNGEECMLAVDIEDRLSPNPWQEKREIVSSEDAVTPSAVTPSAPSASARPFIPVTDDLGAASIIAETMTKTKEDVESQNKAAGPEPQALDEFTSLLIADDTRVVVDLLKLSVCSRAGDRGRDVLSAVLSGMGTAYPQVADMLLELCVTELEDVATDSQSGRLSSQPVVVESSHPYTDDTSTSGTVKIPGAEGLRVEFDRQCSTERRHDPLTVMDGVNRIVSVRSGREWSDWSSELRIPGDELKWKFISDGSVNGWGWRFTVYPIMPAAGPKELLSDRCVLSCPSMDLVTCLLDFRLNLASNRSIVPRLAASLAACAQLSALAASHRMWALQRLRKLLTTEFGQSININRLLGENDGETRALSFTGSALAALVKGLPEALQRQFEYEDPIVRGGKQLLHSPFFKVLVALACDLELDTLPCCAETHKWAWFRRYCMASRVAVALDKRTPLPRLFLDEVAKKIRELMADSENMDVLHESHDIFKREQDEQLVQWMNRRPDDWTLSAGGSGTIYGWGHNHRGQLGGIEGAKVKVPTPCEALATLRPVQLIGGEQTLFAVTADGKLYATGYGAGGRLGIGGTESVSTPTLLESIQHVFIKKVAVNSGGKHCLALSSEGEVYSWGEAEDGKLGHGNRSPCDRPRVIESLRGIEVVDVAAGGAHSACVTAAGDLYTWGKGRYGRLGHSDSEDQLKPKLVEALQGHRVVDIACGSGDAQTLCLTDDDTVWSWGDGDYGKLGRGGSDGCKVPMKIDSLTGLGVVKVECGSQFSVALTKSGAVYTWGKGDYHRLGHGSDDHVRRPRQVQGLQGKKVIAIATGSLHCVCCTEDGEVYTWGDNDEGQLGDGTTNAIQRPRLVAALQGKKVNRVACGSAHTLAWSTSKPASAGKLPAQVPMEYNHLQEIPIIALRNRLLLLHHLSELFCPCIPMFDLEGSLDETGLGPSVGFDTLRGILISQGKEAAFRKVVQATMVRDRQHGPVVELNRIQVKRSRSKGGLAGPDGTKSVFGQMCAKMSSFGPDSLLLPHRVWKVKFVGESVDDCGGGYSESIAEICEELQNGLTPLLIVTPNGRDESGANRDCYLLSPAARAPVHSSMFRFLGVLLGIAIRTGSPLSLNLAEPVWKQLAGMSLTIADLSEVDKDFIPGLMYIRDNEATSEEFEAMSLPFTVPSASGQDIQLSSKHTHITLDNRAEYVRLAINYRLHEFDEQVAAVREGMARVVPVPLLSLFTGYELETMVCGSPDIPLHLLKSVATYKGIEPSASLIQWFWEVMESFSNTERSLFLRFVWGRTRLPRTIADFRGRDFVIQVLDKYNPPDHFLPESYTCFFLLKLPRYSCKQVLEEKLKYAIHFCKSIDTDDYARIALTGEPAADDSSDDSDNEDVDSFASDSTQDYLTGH
UniProt Q9BTY7: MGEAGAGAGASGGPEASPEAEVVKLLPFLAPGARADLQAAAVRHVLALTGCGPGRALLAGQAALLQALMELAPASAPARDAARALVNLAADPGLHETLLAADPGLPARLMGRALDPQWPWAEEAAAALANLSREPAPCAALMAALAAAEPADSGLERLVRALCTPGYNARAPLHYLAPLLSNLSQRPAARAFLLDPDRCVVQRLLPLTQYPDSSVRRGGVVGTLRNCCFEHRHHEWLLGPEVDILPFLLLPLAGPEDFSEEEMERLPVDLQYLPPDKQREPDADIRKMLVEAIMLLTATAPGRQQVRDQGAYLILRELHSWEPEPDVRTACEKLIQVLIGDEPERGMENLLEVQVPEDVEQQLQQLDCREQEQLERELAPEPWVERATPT
UniProt O14979: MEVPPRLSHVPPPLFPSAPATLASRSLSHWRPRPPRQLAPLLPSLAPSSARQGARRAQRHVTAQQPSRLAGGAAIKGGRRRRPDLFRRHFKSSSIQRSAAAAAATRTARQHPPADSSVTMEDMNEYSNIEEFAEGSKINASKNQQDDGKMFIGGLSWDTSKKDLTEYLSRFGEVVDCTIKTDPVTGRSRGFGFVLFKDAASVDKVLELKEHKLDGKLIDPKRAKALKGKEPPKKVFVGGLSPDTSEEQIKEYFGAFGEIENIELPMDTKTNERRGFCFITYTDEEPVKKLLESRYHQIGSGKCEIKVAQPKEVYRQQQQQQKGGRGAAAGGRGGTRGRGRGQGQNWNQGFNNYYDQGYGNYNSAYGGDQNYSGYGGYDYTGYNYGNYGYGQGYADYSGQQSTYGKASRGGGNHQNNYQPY
UniProt Q86VS8: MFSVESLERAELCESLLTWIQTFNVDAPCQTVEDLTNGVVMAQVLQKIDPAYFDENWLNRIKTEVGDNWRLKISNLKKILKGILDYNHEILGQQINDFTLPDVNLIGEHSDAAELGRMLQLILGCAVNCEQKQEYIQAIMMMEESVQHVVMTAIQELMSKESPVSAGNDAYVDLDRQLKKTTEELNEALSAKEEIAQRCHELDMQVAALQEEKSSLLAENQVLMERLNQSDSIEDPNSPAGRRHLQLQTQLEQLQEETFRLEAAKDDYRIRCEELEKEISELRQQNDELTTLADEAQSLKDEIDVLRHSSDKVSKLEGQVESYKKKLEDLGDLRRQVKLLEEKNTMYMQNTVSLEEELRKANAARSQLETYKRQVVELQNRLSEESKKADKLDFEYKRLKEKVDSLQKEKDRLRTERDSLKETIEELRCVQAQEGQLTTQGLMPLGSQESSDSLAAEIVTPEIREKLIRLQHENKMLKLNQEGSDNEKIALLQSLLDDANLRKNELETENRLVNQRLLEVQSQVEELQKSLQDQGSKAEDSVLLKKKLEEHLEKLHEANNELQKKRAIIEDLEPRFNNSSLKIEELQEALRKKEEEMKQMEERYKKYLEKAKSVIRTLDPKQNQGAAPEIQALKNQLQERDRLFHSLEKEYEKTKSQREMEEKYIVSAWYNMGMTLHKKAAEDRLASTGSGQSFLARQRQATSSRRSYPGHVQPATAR
UniProt H0YH80: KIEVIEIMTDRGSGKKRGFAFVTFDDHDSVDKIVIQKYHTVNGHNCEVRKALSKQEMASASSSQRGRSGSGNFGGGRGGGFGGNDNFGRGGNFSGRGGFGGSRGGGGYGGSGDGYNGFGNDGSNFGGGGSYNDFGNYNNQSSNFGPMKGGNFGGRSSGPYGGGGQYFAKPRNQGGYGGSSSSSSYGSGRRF

Tests used:
Experiment in all cases: log2 fold change, soluble protein after heating vs DMSO (PISA); higher = thermal stabilisation; K562 lysate, 10 uM; active = over 0.2 and 3.5 SD of the protein, either way, in both replicates (recomputed)
lapatinib = compound: CS(=O)(=O)CCNCc1ccc(-c2ccc3ncnc(Nc4ccc(OCc5cccc(F)c5)c(Cl)c4)c3c2)o1 [lapatinib]
How it was run: (§1)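 A 30 min treatment with 10 μM compound was applied to crude K562 extract at 1 mg/mL protein in PBS pH 7.4 with 1 mM MgCl2. Heating for 3 min spanned 48°C-58°C, after which aliquots were pooled, adjusted to 0.5% NP-40 at 4°C and spun at 21,000xg for 90 min. TMTpro 16plex LC-MS/MS of the supernatant, with channel sums equalised, gave values recorded as log-two fold change in thermal stability against solvent controls, from duplicates.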

pictilisib = compound: CS(=O)(=O)N1CCN(Cc2cc3nc(-c4cccc5[nH]ncc45)nc(N4CCOCC4)c3s2)CC1 [pictilisib]
How it was run: as §1

crizotinib = compound: C[C@@H](Oc1cc(-c2cnn(C3CCNCC3)c2)cnc1N)c1c(Cl)ccc(F)c1Cl [crizotinib]
How it was run: as §1

[1] = compound: C[C@H](C1=CC=C(C=C1)C(=O)NC2=C3C=CNC3=NC=C2)N
How it was run: as §1

duvelisib = compound: C[C@H](Nc1ncnc2nc[nH]c12)c1cc2cccc(Cl)c2c(=O)n1-c1ccccc1 [duvelisib]
How it was run: as §1

gandotinib = compound: Cc1cc(Nc2cc(CN3CCOCC3)c3nc(C)c(Cc4ccc(Cl)cc4F)n3n2)n[nH]1 [gandotinib]
How it was run: as §1

tozasertib = compound: Cc1cc(Nc2cc(N3CCN(C)CC3)nc(Sc3ccc(NC(=O)C4CC4)cc3)n2)n[nH]1 [tozasertib]
How it was run: as §1

doramapimod = compound: Cc1ccc(-n2nc(C(C)(C)C)cc2NC(=O)Nc2ccc(OCCN3CCOCC3)c3ccccc23)cc1 [doramapimod]
How it was run: as §1

bafetinib = compound: Cc1ccc(NC(=O)c2ccc(CN3CC[C@H](N(C)C)C3)c(C(F)(F)F)c2)cc1Nc1nccc(-c2cncnc2)n1 [bafetinib]
How it was run: as §1

[2] = compound: Cc1cccc(CC(=O)N2CCc3c2ccc(-c2cn(C)c4ncnc(N)c24)c3F)n1
How it was run: as §1

nilotinib = compound: Cc1cn(-c2cc(NC(=O)c3ccc(C)c(Nc4nccc(-c5cccnc5)n4)c3)cc(C(F)(F)F)c2)cn1 [nilotinib]
How it was run: as §1

[3] = compound: Cc1nc(Nc2n[nH]c3c2CN(C(=O)N[C@H](CN(C)C)c2ccccc2)C3(C)C)c2sccc2n1
How it was run: as §1

dasatinib = compound: Cc1nc(Nc2ncc(C(=O)Nc3c(C)cccc3Cl)s2)cc(N2CCN(CCO)CC2)n1 [dasatinib]
How it was run: as §1

[4] = compound: Cc1ncc(-c2ccnc(Nc3ccc(S(C)(=O)=O)cc3)n2)n1C(C)C
How it was run: as §1

[5] = compound: Cn1cc(-c2ccc3c(c2)CCN3C(=O)Cc2cccc(C(F)(F)F)c2)c2c(N)ncnc21
How it was run: as §1

quisinostat = compound: Cn1cc(CNCC2CCN(c3ncc(C(=O)NO)cn3)CC2)c2ccccc21 [quisinostat]
How it was run: as §1

tipifarnib = compound: Cn1cncc1[C@@](N)(c1ccc(Cl)cc1)c1ccc2c(c1)c(-c1cccc(Cl)c1)cc(=O)n2C [tipifarnib]
How it was run: as §1

[6] = compound: NC(=O)Nc1cc(-c2cccc(F)c2)sc1C(=O)N[C@H]1CCCNC1
How it was run: as §1

[7] = compound: NC(=O)c1cnc(N[C@@H]2CCCC[C@@H]2N)nc1Nc1cccc(-n2nccn2)c1
How it was run: as §1

[8] = compound: NC1(c2ccc(-c3nc4ccn5c(=O)[nH]nc5c4cc3-c3ccccc3)cc2)CCC1
How it was run: as §1

Measured: log2 fold change

HSP90AB4P (UniProt Q58FF6)
inactive: lapatinib -0.106 | pictilisib -0.322 | crizotinib -0.039 | [1] -0.382 | duvelisib 0.006 | gandotinib -0.05 | tozasertib 0.006 | doramapimod 0.112 | bafetinib -0.531 | [2] 0.32 | nilotinib -0.1 | [3] -0.059 | dasatinib -0.098 | [4] 0.119 | [5] 0.072 | quisinostat -0.153 | tipifarnib 0.116 | [6] 0.038 | [7] 0.034 | [8] -0.063

HERC2 (UniProt O95714)
inactive: lapatinib -0.001 | pictilisib -0.007 | crizotinib -0.055 | [1] -0.041 | duvelisib 0.023 | gandotinib -0.007 | tozasertib 0.022 | doramapimod 0.058 | bafetinib -0.15 | [2] 0.153 | nilotinib -0.077 | [3] 0.017 | dasatinib 0.032 | [4] -0.034 | [5] 0.118 | quisinostat -0.061 | tipifarnib 0.007 | [6] 0.028 | [7] -0.047 | [8] 0.085

HINT3 (UniProt Q9NQE9)
inactive: lapatinib 0.033 | pictilisib 0.009 | crizotinib -0.045 | [1] 0.007 | duvelisib 0.017 | gandotinib -0.042 | tozasertib 0.084 | doramapimod -0.005 | bafetinib -0.027 | [2] -0.008 | nilotinib 0.095 | [3] 0.038 | dasatinib -0.028 | [4] -0.019 | [5] -0.022 | quisinostat -0.091 | tipifarnib -0.015 | [6] 0.028 | [7] 0.003 | [8] 0.013

HNRNPF (UniProt P52597)
inactive: lapatinib 0.003 | pictilisib 0.013 | crizotinib -0.013 | [1] -0.012 | duvelisib 0.005 | gandotinib 0.041 | tozasertib -0.006 | doramapimod 0.078 | bafetinib -0.013 | [2] 0.008 | nilotinib -0.044 | [3] -0.015 | dasatinib -0.003 | [4] 0.024 | [5] 0.009 | quisinostat -0.062 | tipifarnib -0.019 | [6] 0.029 | [7] -0.013 | [8] -0.039

HK1 isoform 2 (UniProt P19367)
inactive: lapatinib 0 | pictilisib -0.009 | crizotinib -0.023 | [1] -0.026 | duvelisib -0.033 | gandotinib -0.051 | tozasertib 0.038 | doramapimod 0.039 | bafetinib -0.023 | [2] 0.029 | nilotinib 0.011 | [3] 0 | dasatinib -0.026 | [4] -0.005 | [5] -0.008 | quisinostat -0.013 | tipifarnib 0.007 | [6] 0.008 | [7] -0.005 | [8] 0

HPRT1 (UniProt P00492)
inactive: lapatinib 0.013 | pictilisib 0 | crizotinib 0.04 | [1] -0.002 | duvelisib 0.011 | gandotinib 0.007 | tozasertib -0.007 | doramapimod 0.003 | bafetinib 0.059 | [2] -0.02 | nilotinib -0.027 | [3] 0.022 | dasatinib 0.02 | [4] -0.033 | [5] 0.004 | quisinostat 0.017 | tipifarnib 0.046 | [6] -0.018 | [7] -0.001 | [8] 0.049

HSD17B11 (UniProt Q8NBQ5)
inactive: lapatinib 0.018 | pictilisib -0.008 | crizotinib 0.053 | [1] -0.015 | duvelisib 0.055 | gandotinib 0.024 | tozasertib 0.019 | doramapimod 0.002 | bafetinib -0.001 | [2] 0.045 | nilotinib -0.025 | [3] -0.041 | dasatinib -0.014 | [4] 0.001 | [5] 0.012 | quisinostat 0.038 | tipifarnib 0.015 | [6] -0.003 | [7] -0.027 | [8] 0.009

HGH1 (UniProt Q9BTY7)
inactive: lapatinib -0.028 | pictilisib -0.031 | crizotinib -0.056 | [1] -0.009 | duvelisib 0.012 | gandotinib -0.073 | tozasertib 0.035 | doramapimod 0.014 | bafetinib -0.068 | [2] 0.064 | nilotinib 0.067 | [3] -0.004 | dasatinib -0.052 | [4] -0.024 | [5] 0.016 | quisinostat -0.015 | tipifarnib 0 | [6] 0.047 | [7] 0.074 | [8] -0.017

HIBADH (UniProt P31937)
inactive: lapatinib 0.01 | pictilisib -0.001 | crizotinib 0.012 | [1] 0.025 | duvelisib -0.016 | gandotinib 0.004 | tozasertib 0 | doramapimod -0.031 | bafetinib 0.044 | [2] -0.042 | nilotinib 0.045 | [3] -0.015 | dasatinib 0.007 | [4] 0.03 | [5] -0.048 | quisinostat 0.047 | tipifarnib 0.05 | [6] -0.008 | [7] -0.012 | [8] -0.015

HINT2 (UniProt Q9BX68)
inactive: lapatinib 0.045 | pictilisib -0.015 | crizotinib -0.031 | [1] 0.254 | duvelisib 0.106 | gandotinib 0.032 | tozasertib 0.051 | doramapimod 0.017 | bafetinib -0.094 | [2] -0.047 | nilotinib 0.115 | [3] 0.026 | dasatinib -0.02 | [4] 0.076 | [5] 0.034 | quisinostat 0.063 | tipifarnib 0.035 | [6] -0.034 | [7] -0.02 | [8] 0.091

HINT1 (UniProt P49773)
inactive: lapatinib 0.109 | pictilisib 0.028 | crizotinib 0.035 | [1] 0.096 | duvelisib 0.05 | gandotinib -0.064 | tozasertib 0.059 | doramapimod 0.057 | bafetinib 0.022 | [2] -0.035 | nilotinib 0.019 | [3] 0.038 | dasatinib -0.002 | [4] 0.031 | [5] -0.016 | quisinostat 0.092 | tipifarnib 0.011 | [6] -0.091 | [7] -0.031 | [8] 0.056

HNRNPK isoform 3 (UniProt P61978)
inactive: lapatinib -0.098 | pictilisib 0.006 | crizotinib 0.027 | [1] -0.014 | duvelisib 0.066 | gandotinib 0 | tozasertib -0.038 | doramapimod 0.019 | bafetinib -0.027 | [2] -0.006 | nilotinib -0.018 | [3] -0.045 | dasatinib -0.056 | [4] 0.064 | [5] -0.071 | quisinostat -0.029 | tipifarnib 0.038 | [6] 0.057 | [7] 0.017 | [8] -0.063

HNRNPDL (UniProt O14979)
inactive: lapatinib 0.04 | pictilisib -0.002 | crizotinib -0.005 | [1] 0.016 | duvelisib 0.04 | gandotinib -0.025 | tozasertib -0.056 | doramapimod 0.104 | bafetinib 0.072 | [2] -0.035 | nilotinib -0.208 | [3] 0.036 | dasatinib 0.016 | [4] -0.018 | [5] -0.005 | quisinostat 0.074 | tipifarnib -0.002 | [6] -0.062 | [7] -0.008 | [8] 0.004

HOOK3 (UniProt Q86VS8)
inactive: lapatinib 0.005 | pictilisib -0.03 | crizotinib 0.008 | [1] 0.004 | duvelisib -0.021 | gandotinib -0.018 | tozasertib 0.038 | doramapimod -0.019 | bafetinib -0.019 | [2] 0.027 | nilotinib -0.032 | [3] 0.03 | dasatinib -0.048 | [4] -0.022 | [5] -0.002 | quisinostat 0.008 | tipifarnib -0.044 | [6] 0.001 | [7] 0.01 | [8] 0.013

2 records drawn at random from those above:
HOOK3 (UniProt Q86VS8)
inactive: lapatinib 0.005 | pictilisib -0.03 | crizotinib 0.008 | [1] 0.004 | duvelisib -0.021 | gandotinib -0.018 | tozasertib 0.038 | doramapimod -0.019 | bafetinib -0.019 | [2] 0.027 | nilotinib -0.032 | [3] 0.03 | dasatinib -0.048 | [4] -0.022 | [5] -0.002 | quisinostat 0.008 | tipifarnib -0.044 | [6] 0.001 | [7] 0.01 | [8] 0.013

HINT1 (UniProt P49773)
inactive: lapatinib 0.109 | pictilisib 0.028 | crizotinib 0.035 | [1] 0.096 | duvelisib 0.05 | gandotinib -0.064 | tozasertib 0.059 | doramapimod 0.057 | bafetinib 0.022 | [2] -0.035 | nilotinib 0.019 | [3] 0.038 | dasatinib -0.002 | [4] 0.031 | [5] -0.016 | quisinostat 0.092 | tipifarnib 0.011 | [6] -0.091 | [7] -0.031 | [8] 0.056

(listing goes on)

HIP1 (UniProt O00291)
inactive: lapatinib -0.036 | pictilisib -0.041 | crizotinib -0.01 | [1] -0.057 | duvelisib 0.019 | gandotinib 0.076 | tozasertib 0.03 | doramapimod 0.034 | bafetinib -0.033 | [2] 0.072 | nilotinib -0.049 | [3] 0.013 | dasatinib -0.039 | [4] -0.029 | [5] -0.003 | quisinostat -0.004 | tipifarnib -0.064 | [6] -0.007 | [7] 0.008 | [8] -0.029

HNRNPA1 (UniProt H0YH80)
inactive: lapatinib 0.059 | pictilisib 0.147 | crizotinib 0.053 | [1] -0.046 | duvelisib 0.022 | gandotinib 0.043 | tozasertib 0.006 | doramapimod 0.022 | bafetinib 0.026 | [2] -0.045 | nilotinib -0.023 | [3] -0.077 | dasatinib -0.14 | [4] -0.185 | [5] -0.093 | quisinostat -0.048 | tipifarnib 0.019 | [6] 0.068 | [7] -0.066 | [8] -0.038
